1 substance from paper PMC9822926 can be followed below.

Amino acid sequences for entries named in this document (tags omitted).
UniProt P51148: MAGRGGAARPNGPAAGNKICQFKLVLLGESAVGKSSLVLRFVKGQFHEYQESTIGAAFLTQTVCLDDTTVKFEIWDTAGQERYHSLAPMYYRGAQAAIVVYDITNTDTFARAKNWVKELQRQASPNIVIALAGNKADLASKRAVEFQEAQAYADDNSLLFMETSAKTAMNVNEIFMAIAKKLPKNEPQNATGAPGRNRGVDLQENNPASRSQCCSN

The target in this assay is T1, MFN1-HA (endogenously expressed MFN1 with an HA-tag inserted in the MFN1 alleles of HeLa cells) (human (endogenous in HeLa)) (UniProt Q8IWA4).
T1 sequence: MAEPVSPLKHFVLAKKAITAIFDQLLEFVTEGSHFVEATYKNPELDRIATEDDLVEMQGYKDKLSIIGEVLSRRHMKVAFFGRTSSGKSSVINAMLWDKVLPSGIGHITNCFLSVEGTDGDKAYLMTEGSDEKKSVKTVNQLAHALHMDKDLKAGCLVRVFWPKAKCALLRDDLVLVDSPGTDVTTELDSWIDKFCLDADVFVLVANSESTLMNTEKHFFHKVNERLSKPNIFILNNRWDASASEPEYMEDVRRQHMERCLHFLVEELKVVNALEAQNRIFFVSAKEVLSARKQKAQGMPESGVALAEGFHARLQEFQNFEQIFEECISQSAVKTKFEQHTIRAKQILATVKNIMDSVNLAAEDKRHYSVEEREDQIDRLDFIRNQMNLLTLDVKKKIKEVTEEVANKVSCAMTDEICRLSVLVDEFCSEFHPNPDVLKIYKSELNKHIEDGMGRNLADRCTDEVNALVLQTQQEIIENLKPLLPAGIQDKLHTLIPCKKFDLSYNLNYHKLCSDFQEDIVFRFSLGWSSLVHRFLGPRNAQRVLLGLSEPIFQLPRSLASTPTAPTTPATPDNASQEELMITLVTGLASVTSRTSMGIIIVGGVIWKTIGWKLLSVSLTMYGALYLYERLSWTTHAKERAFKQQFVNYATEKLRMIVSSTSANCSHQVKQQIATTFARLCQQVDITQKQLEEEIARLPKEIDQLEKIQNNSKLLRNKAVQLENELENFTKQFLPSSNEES
The assay is described as follows: affinity purification with mass spectrometry; HA-dynabeads, 12 h at 4 °C, lysates of MFN1-HA HeLa cells (WT HeLa as control); lysis 50 mM Tris pH 7.4, 150 mM NaCl, 5 mM EDTA, 1% digitonin; washes with 0.1% digitonin; SAINTexpress, BFDR ≤ 0.05.

Results are given in words; binding and its absence hold for the method and conditions named. Binding seen in cells or lysates may run through a third protein. These calls come from enrichment with a bait or labelling near it, and not all partners need be listed. Sequences can lack the tags named with a protein.

In the case of “RAB5C (endogenous, HeLa) (from UniProt P51148 1-216)”, the binding result is given as “binds”.
